# Experimental data as given in patent US11304988B2, “Inhibiting tumor cell migration by inhibition of kinesin light chain 1, variant 1 (KLC1C)” (Northwestern University, priority 2018, dated 2022).
# Test system: B16F10 cells
# Test: host inflammatory response to extravasated B16F10 cells in lung
# Type: in vivo, mouse
# Conditions: for tumor cells surrounded by leukocytes (provoked an inflammatory response): B16F10 cells within lung parenchyma of pretreated mice
# Procedure: FIG. 14. B16F10 cells in lung of mice treated with Tat-Scr 5 days after injection. 25% of the tumor cells were seen several cell diameters away from leukocytes stained with anti CD11a.
# FIG. 15. B16F10 cells within lung parenchyma engaged with leukocytes. 96% of the tumor cells in mice pretreated with Tat-KLC1c but only 75% in mice treated with Tat-Scr were surrounded by leukocytes.
# Experiments are conducted during development of embodiments herein to examine recently-emigrated melanoma cells and quantify the inflammatory response they generate, the expression of putative melanoma stem cell markers, and the degree of tumor cell and inflammatory cell apoptosis. Experiments are conducted as in Example 2, but mice are sacrificed at appropriate times to examine the host response to the tumor cell extravasation. Early inflammatory response should manifest by day 2 and mature over the next few days. Tumor cells are labeled with carboxyfluorescein (CFSE) to facilitate locating them in lung tissue. Thick (100 μm) frozen sections are cut from the fixed and cryoprotected tissue to allow observation of the 3-dimensional relationship of tumors to the host tissue. Sections are fixed and gently permeabilized (0.3% Triton X-100 in PBS+2.5% BSA) to allow penetration of antibodies, then stained for markers of macrophages (F4/80), neutrophils (GR-1 or S100A9), monocytes (CD14), natural killer cells (CD56), or T cells (CD3). Selective staining for endothelial cells (CD31 or VE-cadherin) delineates intravascular vs. extravascular leukocytes. Additionally, samples are stained for markers of murine myeloid-derived suppressor cells (Arginase-1 and STAT-3) and Regulatory T cells (Tregs; Foxp3). Serial sections are also cut thin (5-10 μm) to allow detailed analysis of the leukocyte types involved in the inflammatory response as a function of time. Cleaved caspase 3 serve as a marker for apoptosis in either tumor cells or leukocytes. […] This is consistent with the determination that melanoma cells that extravasate via the LBRC avoid stimulating an inflammatory response.
substance,measurement,setting,value
"Tat-KLC1c: 11-amino acid basic region from HIV Tat protein, glycine tripeptide linker, C-terminal decapeptide of KLC1c (MRKMKLGLVN); SEQ ID NO: 8 (YGRKKRRQRRRGGGMRKMKLGLVN)",tumor cells surrounded by leukocytes (provoked an inflammatory response),,96%
"Tat-Scr: negative control peptide contains the same ten amino acids in a random order (scrambled, Scr); SEQ ID NO: 9 (YGRKKRRQRRRGGGGKLNKMVMLR) [reference compound]",tumor cells surrounded by leukocytes (provoked an inflammatory response),,75%
same,tumor cells seen several cell diameters away from leukocytes,"lung, 5 days after injection, anti CD11a staining",25%
